Laboratory results published in PMC3526264, “The C-terminus of Dpb2 is required for interaction with Pol2 and for cell viability” (Nucleic Acids Research, 2012).
No constants are given. Whether binding was seen depends on the method and setting. In cells and extracts the contact can be indirect. Some binding calls cover weakened binding; strength is not graded here. For some of these results: Sequences can lack the tags named with a protein. Each block holds one molecule with its values, some of them ahead of it.

Sequences of proteins named here, by UniProt entry; tags and fusion partners are left off.
UniProt P21951: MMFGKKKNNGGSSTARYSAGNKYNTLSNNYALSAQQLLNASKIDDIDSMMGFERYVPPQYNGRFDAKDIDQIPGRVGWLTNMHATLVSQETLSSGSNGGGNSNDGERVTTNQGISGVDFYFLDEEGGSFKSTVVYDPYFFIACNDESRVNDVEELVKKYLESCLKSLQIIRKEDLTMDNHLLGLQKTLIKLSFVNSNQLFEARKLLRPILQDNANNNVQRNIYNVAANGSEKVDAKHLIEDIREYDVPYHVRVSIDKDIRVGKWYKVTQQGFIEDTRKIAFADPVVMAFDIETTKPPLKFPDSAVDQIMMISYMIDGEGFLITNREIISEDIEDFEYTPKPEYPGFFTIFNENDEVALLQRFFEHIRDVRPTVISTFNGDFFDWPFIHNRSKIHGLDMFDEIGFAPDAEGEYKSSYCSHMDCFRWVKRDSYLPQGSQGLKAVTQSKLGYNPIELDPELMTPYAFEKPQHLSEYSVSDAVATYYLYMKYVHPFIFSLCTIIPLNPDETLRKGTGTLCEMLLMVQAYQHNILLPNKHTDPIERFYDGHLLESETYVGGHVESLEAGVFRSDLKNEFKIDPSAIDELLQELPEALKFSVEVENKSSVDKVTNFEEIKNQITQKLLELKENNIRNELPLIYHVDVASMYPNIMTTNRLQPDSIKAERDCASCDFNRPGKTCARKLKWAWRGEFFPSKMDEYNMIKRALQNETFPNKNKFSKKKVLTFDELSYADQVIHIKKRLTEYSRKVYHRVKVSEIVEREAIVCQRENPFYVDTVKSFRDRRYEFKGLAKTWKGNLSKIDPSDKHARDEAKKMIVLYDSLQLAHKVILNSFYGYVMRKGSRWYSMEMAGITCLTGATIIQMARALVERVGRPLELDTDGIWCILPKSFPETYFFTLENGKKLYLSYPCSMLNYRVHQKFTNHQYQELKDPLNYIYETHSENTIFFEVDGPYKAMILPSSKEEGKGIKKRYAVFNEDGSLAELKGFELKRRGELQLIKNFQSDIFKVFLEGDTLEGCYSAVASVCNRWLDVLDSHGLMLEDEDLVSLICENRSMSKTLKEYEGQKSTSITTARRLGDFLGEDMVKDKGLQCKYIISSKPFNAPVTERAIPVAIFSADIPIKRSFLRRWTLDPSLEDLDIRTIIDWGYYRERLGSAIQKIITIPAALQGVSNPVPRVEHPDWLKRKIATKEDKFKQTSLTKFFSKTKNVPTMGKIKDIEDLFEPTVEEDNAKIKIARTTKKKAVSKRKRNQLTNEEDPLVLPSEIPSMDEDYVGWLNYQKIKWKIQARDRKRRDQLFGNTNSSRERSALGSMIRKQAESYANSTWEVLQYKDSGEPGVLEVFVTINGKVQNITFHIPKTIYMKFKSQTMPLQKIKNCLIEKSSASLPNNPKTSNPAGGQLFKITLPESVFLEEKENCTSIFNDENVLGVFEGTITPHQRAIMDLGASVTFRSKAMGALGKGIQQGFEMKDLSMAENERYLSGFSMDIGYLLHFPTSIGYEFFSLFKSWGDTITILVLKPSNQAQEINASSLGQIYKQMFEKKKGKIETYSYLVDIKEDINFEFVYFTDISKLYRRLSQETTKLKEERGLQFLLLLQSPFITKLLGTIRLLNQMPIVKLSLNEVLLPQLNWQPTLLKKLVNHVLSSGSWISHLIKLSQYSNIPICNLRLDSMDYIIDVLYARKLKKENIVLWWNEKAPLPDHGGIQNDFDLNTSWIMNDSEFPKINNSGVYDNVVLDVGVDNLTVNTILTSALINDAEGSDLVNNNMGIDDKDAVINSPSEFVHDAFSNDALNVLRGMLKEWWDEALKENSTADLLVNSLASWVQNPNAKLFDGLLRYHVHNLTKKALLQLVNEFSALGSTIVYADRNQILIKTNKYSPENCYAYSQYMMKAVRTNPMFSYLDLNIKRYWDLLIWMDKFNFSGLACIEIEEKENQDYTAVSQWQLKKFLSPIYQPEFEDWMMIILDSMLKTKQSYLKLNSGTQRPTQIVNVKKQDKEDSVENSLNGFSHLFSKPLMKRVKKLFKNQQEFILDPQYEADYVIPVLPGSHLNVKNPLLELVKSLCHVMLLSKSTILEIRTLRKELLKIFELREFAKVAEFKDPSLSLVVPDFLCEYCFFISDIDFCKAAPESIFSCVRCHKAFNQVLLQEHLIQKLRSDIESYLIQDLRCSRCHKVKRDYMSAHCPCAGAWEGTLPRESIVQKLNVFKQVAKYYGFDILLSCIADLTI

Experiments:
GST-Dpb2 (S. cerevisiae) = target: T1, GST-Dpb2 (S. cerevisiae) (UniProt P24482); assay: pull-down; GST-tagged subunit (GST-Pol2, GST-Dpb2 or GST–Dpb2-201) co-over-expressed in S. cerevisiae PY116 with the remaining subunits; lysate, ammonium sulfate, phosphocellulose, then glutathione sepharose; washed with 20 column volumes Buffer B (25 mM Hepes-NaOH pH 7.6, 10% glycerol), eluted with 20 mM glutathione; colloidal Coomassie-stained 10% SDS-PAGE
T1 sequence: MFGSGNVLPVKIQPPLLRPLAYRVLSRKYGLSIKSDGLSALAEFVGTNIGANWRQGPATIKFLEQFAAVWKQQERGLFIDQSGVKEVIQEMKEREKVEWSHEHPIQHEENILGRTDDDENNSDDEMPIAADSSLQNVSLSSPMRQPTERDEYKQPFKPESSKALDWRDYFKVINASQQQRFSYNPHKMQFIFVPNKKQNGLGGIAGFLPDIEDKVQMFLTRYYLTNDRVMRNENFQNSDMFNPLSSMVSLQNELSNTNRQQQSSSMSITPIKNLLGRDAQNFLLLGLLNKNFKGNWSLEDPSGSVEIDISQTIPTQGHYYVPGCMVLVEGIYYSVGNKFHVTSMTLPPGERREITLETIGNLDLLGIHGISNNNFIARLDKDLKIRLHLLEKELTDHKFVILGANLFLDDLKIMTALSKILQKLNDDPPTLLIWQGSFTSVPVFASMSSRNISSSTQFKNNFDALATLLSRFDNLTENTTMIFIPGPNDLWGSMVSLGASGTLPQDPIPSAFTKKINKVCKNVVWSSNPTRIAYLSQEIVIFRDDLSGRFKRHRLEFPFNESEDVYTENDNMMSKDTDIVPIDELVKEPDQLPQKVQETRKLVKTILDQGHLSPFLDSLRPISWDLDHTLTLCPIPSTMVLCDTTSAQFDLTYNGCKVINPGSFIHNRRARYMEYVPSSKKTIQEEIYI

GST-Pol2 (S. cerevisiae) = GST-Pol2 (S. cerevisiae) (UniProt P21951); assay: as above

binding (GST-Dpb2 (S. cerevisiae)): binds
Molecule: Pol2 (from UniProt P21951 1-2222) (enzyme)

binding (GST-Pol2 (S. cerevisiae)): binds
B1: Dpb2 (protein, UniProt P24482 1-689)
chain: T1 sequence

binding (GST-Pol2 (S. cerevisiae)): binds
B2: Dpb4 (natural protein, S. cerevisiae, UniProt Q04603 1-196, looked up)
chain: MPPKGWRKDAQGNYPTTSYIKEQENITIQDLLFPKSTIVNLAREVPQQSGKKLLINKDASLALQRGATVFVNHLLLFAREIAKSQDKKSCSVDDVLSALDHIGHSALKGPVRDKLDEYQAAVEQRKKEKLDSGEVDADGDIDMGEDKENVPVEKVKEHDEIEEQGDALQDVEESSEKKQKTESQDVETRVQNLEQT
notes: Dpb4, subunit of DNA polymerase epsilon, S. cerevisiae; over-expression vector pJL5 (Dpb3 and Dpb4); source: S. cerevisiae pY116, galactose-induced over-expression (pJL5), co-expressed with the other Pol ε subunits

binding (GST-Pol2 (S. cerevisiae)): binds
B3: Dpb3 (natural protein, S. cerevisiae, UniProt P27344 1-201, looked up)
chain: MSNLVKEKAPVFPISKVKKIAKCDPEYVITSNVAISATAFAAELFVQNLVEESLVLAQLNSKGKTSLRLSLNSIEECVEKRDNFRFLEDAIKQLKKNSALDKKRELNMQPGRSDQEVVIEEPELHEDDGVEEEEEEDEVSEEEEPVHNEELLDDSKDQQNDKSTRSVASLLSRFQYKSALDVGEHSDSSDIEVDHTKSTDP
notes: Dpb3, subunit of DNA polymerase epsilon, S. cerevisiae; over-expression vector pJL5 (Dpb3 and Dpb4); source: S. cerevisiae pY116, galactose-induced over-expression (pJL5), co-expressed with the other Pol ε subunits
